Measurements reported in US20190275169A1, “TARGETED IMMUNOSUPPRESSION FOR OPTOGENETIC INTERVENTION” (Circuit Therapeutics, Inc., priority 2018, published 2019).
For at least one compound, name, drawing or mass did not settle the structure.

How the values were obtained:
[1] = tested on: light responsive excitatory opsin protein ChR2 delivered virally via AAV and expressed in the sensory nerve of a mouse; assay: Light-responsiveness over time after AAV delivery of ChR2 to the sensory nerve, immunosuppressant paradigms versus saline (FIG. 2A-2I); assay type: in vivo
From the text: Referring to FIG. 1, various drug groupings are listed (2) which have been known to modulate the immune system, including cyclosporine (“Cyc”), cyclosporine+mycophenolate mofetil (“MMF”), dexamethasone, rapamycin in various dosage configurations, rapamycin+dexamethasone+FK506 (also known as “tacrolimus”; an immunosuppressive drug used mainly after organ transplant to lower rejection risk), and metformin (a medication utilized in treating diabetes and polycystic ovary syndrome which also has been inculcated in immune suppression). Each of these listed drugs has previously been approved by the U.S. F.D.A. for different indications, and the depicted drug schedules associated with each grouping feature dosing and scheduling information that previously has been published in different treatment paradigms, such as for cardiovascular or transplant rejection scenarios.
Thus, referring again to the table (2) of FIG. 1, for cyclosporine, a subcutaneous (or “subQ” or “SQ”) regime is listed, wherein cyclosporine is injected subcutaneously for one week prior to injection of genetic material, and then every two days after, as is a cyclosporine+MMF combination (noted as “Cyc+MMF”) which has been used with success, for example, in clinical trials with adeno associated virus (“AAV”) gene therapies; the term “I.P.” or “i.p.” refers to intraperitoneal injection. Dexamethasone injected every day for one week prior to injection of genetic material, and then every two days onwards also is noted (as “Dex pre/post”), as is another dexamethasone paradigm (labelled as “Dex post”) featuring subcutaneous injection every day from the day before injection of genetic material onwards. Also listed are several rapamycin configurations, the first (“Rapa low dose”), second (“Rapa medium”), and third (“Rapa high”) requiring injection of rapamycin every day from the day before injection of genetic material onwards, with different dosing, respectively, as shown. The “Rapa/FK506/dex” paradigm listed requires injection every day from the day before injection of genetic material for thirty days, and then daily rapamycin injections every day thereafter. Finally, the “Metformin” paradigm listed in FIG. 1 requires injections of metformin every day for one week prior to injection of the genetic material, followed by continued metformin injections every two days thereafter.
Referring to FIG. 2A (4) the vertical axis illustrates the amount of experimental animals responding as a fraction of total number of animals; the horizonal axis represents time (“W1” represents Week 1 post injection of genetic material, etc.). This chart (4) illustrates the effects of the Cyclosporine paradigm, in this experiment with the light responsive excitatory opsin protein ChR2 delivered virally via AAV and expressed in the sensory nerve of a mouse; exposure to light (at approximately 450 nm) stimulates pain-related sensory nerve tissue, with a detectable reaction in the animal; we have shown this to be a particularly efficient model. At week 1 post injection of optogenetic material, none of the animals are showing any response to light-based stimulation, presumably because it takes some time for the AAV delivery package to express light-responsive proteins. Two weeks later, however, 100% of the animals are showing light-responsiveness. The saline group represents the paradigm without immunosuppression. At eight weeks out, only about half of the animals are showing light-responsiveness, and by week 22, none are showing light-responsiveness (i.e., the animal's immune response has functioned to stop the light responsive opsin protein from working).

[2] = tested on: light responsive opsin protein IC++, injected directly into the dorsal root ganglia (DRG) of rats; assay: Histology / transduction rate of opsin IC++ after direct dorsal root ganglia injection (FIG. 4A-4C); assay type: in vivo

Compound	effect on light-responsiveness, Dex post configuration ([1]; Dex post: subcutaneous every day from the day before injection of genetic material onwards, compared with FIG. 2C)	average extension of light responsiveness ([1]; Dex pre/post: every day for one week prior to injection of genetic material, then every two days)	time after which all animals have lost light-responsiveness ([1]; weeks after injection of genetic material, Cyclosporine paradigm or Dex pre/post paradigm)	fraction of light-responsive animals versus time ([1]; FIG. 2G, printed as Rapa low dose (figure legend: high dosage level))	animals remaining light responsive ([1]; Rapa low dose (FIG. 2E), at 126 days out)	fraction of light-responsive animals versus time ([1]; Rapa medium dose (FIG. 2F))	transduction rate (expressing) ([2]; one hundred days post injection, high dose group, with rapamycin)	opsin protein expression by histology versus saline ([2]; rats sacrificed 30 days after delivery of the genetic material)	transduction rate (cells expressing), rapa versus no rapa ([2]; thirty days post injection, two doses of virus)
C[C@@H]1C[C@H]2[C@@H]3CCC4=CC(=O)C=C[C@]4(C)[C@@]3(F)[C@@H](O)C[C@]2(C)[C@@]1(O)C(=O)CO [dexamethasone]	beneficial to have the dexamethasone loaded into the animal for a week before the injection of the genetic material	about three	about fourteen	–	–	–	–	–	–
CO[C@H]1C[C@@H]2CC[C@@H](C)[C@@](O)(O2)C(=O)C(=O)N2CCCC[C@H]2C(=O)O[C@H]([C@H](C)C[C@@H]2CC[C@@H](O)[C@H](OC)C2)CC(=O)[C@H](C)/C=C(\C)[C@@H](O)[C@@H](OC)C(=O)[C@H](C)C[C@H](C)/C=C/C=C/C=C/1C [rapamycin, Rapamycin]	–	–	–	data similar to that of FIG. 2E	every single animal remains light responsive	data similar to that of FIG. 2E	about fifty	higher levels of expression and more cells	much higher cells expressing
